The values below come from PubChem BioAssay AID2685 (National Center for Advancing Translational Sciences (NCATS), 2010).

The list shows a part of the results. Shown are side measurements of this screen, not its main read-out; they come without a call. The list favours compounds with an active or inconclusive main result. The note in brackets gives the kind of curve behind each potency; many fits are weak.

The AC50 is the concentration at which the activity in the assay is half-maximal. A high value points to activity only at high concentration.

This test is described as follows: qHTS Assay for Lipid Storage Modulators in Drosophila S3 Cells.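 On cell number change: cells counted by Cell Tracker Red CMTPX staining in the red channel.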 The note with it: BODIPY lipid droplet fluorescence, 18-24 h; for cell number change: measured here: cell count max response, cells fed with added oleic acid. The method in brief:
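Laser-scanning cytometry quantifies lipid droplet accumulation (500–530 nm total intensity; droplet/cell object ratio) in oleic acid-fed (400 uM added) Drosophila S3 cells treated with a concentration series. 20 uM Triacsin C defined 100% inhibition.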
A general note: In qHTS, concentration-response curves come from the screen itself.

[1] abbreviates: measured here: cell number channel AC50, cells fed with added oleic acid.
Setting [2] is: measured here: lipid fluorescence (Fed channel) AC50, cells fed with added oleic acid.

As to `O=C(CCCN=C1NS(=O)(=O)c2ccccc21)OCc1ccccc1`, the AC50 under setting [1] is 6.51 µM [falling, partial curve, poor fit] and the AC50 under setting [2] was 6.51 µM [falling, partial curve, poor fit]. As to `CCC(C)C(=O)N1c2ccccc2C(=C2SC(C(=O)OC)=C(C(=O)OC)S2)C(=S)C1(C)C` (centres undefined), the cell number change was -157%. The half-maximal activity concentration (AC50) under setting [1] was 7.31 µM [falling, partial curve]. Moreover, the AC50 under setting [2] was 7.31 µM [falling, partial curve]. As to `CC1(C)CC(=O)C(C=NC2CCCCC2)=C(O)C1`, the cell number change is -60.7%. For the same compound, under setting [1], the AC50 is 0.0184 µM [falling, full curve]. The AC50 under setting [2] was 0.146 µM [falling, full curve]. For the compound `COc1cc(NC(=O)Nc2cccc([N+](=O)[O-])c2)cc(OC)c1`, the cell number change is -43.6%. Further, the AC50 under setting [1] was 35.5 µM [falling, single point]. Further, under setting [2], the AC50 is 35.5 µM [falling, single point]. For `Cc1cc(C(=O)CN2CC(C)OC(C)C2)c(C)n1-c1ccccc1` (centres undefined), the cell number change was found to be 24.8%. In addition, the AC50 under setting [2] is 32.6 µM [rising, single point].

For the compound `CCCCn1c(N)c(N(CCOC)C(=O)CSCc2ccc(Cl)c(Cl)c2)c(=O)[nH]c1=O`, the cell number change was 29.6%. The concentration at half-maximal activity (AC50) under setting [2] was 1.84 µM [rising, partial curve]. Consider `COc1ccc(NC(=O)CSc2nnc(-c3ccccc3C)n2N)cc1`, for which the cell number change is 72.1%. In addition, the AC50 under setting [1] is 29.1 µM [rising, single point]. In addition, the concentration at half-maximal activity (AC50) under setting [2] is 13 µM [rising, partial curve]. With `Cc1ccccc1C(=O)N=c1ccn(-c2nc3ccccc3nc2NS(=O)(=O)c2ccccc2)cc1`, the cell number change is 19.8%. On the same count and under the same terms, the result for `Cc1ccc2nc(C3CCN(C(=O)NCc4ccccc4)CC3)[nH]c2c1` reads 1.94%. For `O=C1[C@H]2[C@@H](c3ccc(Cl)cc3)N3C(=O)N(c4cccc(F)c4)C(=O)[C@@]3(Cc3ccc(Cl)cc3)[C@H]2C(=O)N1C1CCCCC1`, the cell number change is 73.5%. In addition, under setting [1], the concentration at half-maximal activity (AC50) was 29.1 µM [rising, single point]. In addition, the half-maximal activity concentration (AC50) under setting [2] was 18.4 µM [falling, single point].

In the case of `Cc1ccn2c(=O)nc(SCC(=O)NCc3ccccc3Cl)nc2c1`, the cell number change turned out to be 20.5%. Moreover, under setting [2], the half-maximal activity concentration (AC50) was 0.116 µM [rising, full curve, poor fit]. In the case of `c1cnc(Sc2ccc3nnnn3n2)nc1`, the cell number change worked out at 31.1%. Also, the half-maximal activity concentration (AC50) under setting [1] is 7.31 µM [falling, partial curve, poor fit]. Regarding `Cc1cc(C)n(CCSCC(=O)O)n1`, the cell number change was -19.3%. Besides, the concentration at half-maximal activity (AC50) under setting [1] was 0.092 µM [falling, full curve, poor fit]. Besides, the AC50 under setting [2] was 6.51 µM [falling, single point]. With `COc1ccc(C)cc1NC(=O)c1cc2ccccc2o1`, the cell number change is -1.74%. For the same compound, the concentration at half-maximal activity (AC50) under setting [2] was 2.59 µM [rising, partial curve].

Consider `O=C(c1cc(=O)[nH]c2ccccc12)N1CCN(c2cccc(C(F)(F)F)c2)CC1`, for which the cell number change amounted to 29.4%. As for `CCCc1cc(=O)n2[nH]c(NCc3ccc(OC)cc3)nc2n1`, the cell number change worked out at 34.8%. Moreover, the AC50 under setting [1] was 0.291 µM [rising, full curve, poor fit]. Turning to `Cc1ccc(C(=O)NCCNC(=O)c2cnccn2)cc1`, the cell number change was -9.21%. As for `Cc1cccc(C)c1NC(=O)CN(C)C(=O)C1CC1C` (centres undefined), the cell number change is 28.3%. In addition, under setting [2], the AC50 is 14.6 µM [rising, partial curve].

On to `O=C(COC(=O)CCC1CCCC1)Nc1ccc(F)cc1`, for which the cell number change was -31.7%. For the same compound, the concentration at half-maximal activity (AC50) under setting [1] is 23.1 µM [falling, single point]. For the same compound, the AC50 under setting [2] was 2.31 µM [rising, partial curve, poor fit]. As to `O=C(O)c1nnn(-c2cc(C(F)(F)F)cc(C(F)(F)F)c2)c1-c1ccccc1`, the cell number change is -53.2%. In addition, the concentration at half-maximal activity (AC50) under setting [1] was 29.1 µM [falling, single point]. Under setting [2], the AC50 was 29.1 µM [falling, single point]. With `Nc1nnc(SCc2ccc(F)cc2Cl)s1`, the cell number change came out at 5.06%. Besides, the AC50 under setting [2] is 16.4 µM [rising, partial curve]. In the case of `O=C(CN1CCN(c2ccccc2)CC1)NC(=O)NCc1ccccc1`, the cell number change is -2.45%. Take `CN(C)CCCOC(=O)COc1ccc(C(C)(C)C)cc1`: the cell number change is -19.4%. Besides, the concentration at half-maximal activity (AC50) under setting [2] was 29.1 µM [falling, partial curve, poor fit]. On to `CCOc1cc(S(=O)(=O)NCc2ccco2)c(OCC)cc1-n1cnnn1`, for which the cell number change was -0.372%. Also, the AC50 under setting [2] was 2.31 µM [rising, single point]. Take `COc1nc(C)ccc1-c1noc(-c2ccco2)n1`: the concentration at half-maximal activity (AC50) under setting [1] was 2.31 µM [rising, partial curve]. Regarding `COC(=O)c1ccc(NC(=O)CN2CCN(CC#N)CC2)cc1`, the cell number change worked out at 75.4%. Further, the AC50 under setting [1] is 29.1 µM [rising, single point].

Take `CC(OC(=O)c1cccc(-n2cnnn2)c1)C(=O)NC1(C#N)CCCCC1` (centres undefined): the cell number change came out at 19.5%. Besides, the half-maximal activity concentration (AC50) under setting [2] is 8.2 µM [rising, partial curve, poor fit]. With `CN(C)CCCNC(=O)c1cc2sc3ccccc3c2s1`, the cell number change is 10.1%. For the same compound, the AC50 under setting [2] is 14.6 µM [rising, partial curve, poor fit].

`Cc1ccn(C(=O)c2ccc(NC(=O)C3CC3)cc2)n1`: the cell number change was -0.249%. Also, the AC50 under setting [2] is 29.1 µM [rising, single point]. Regarding `CCCNC(=O)c1ccc(-c2nc3ccccc3s2)s1`, the cell number change worked out at 35.5%. Besides, the concentration at half-maximal activity (AC50) under setting [1] was 0.164 µM [rising, full curve, poor fit]. For the same compound, the AC50 under setting [2] was 3.66 µM [rising, partial curve]. On to `O=C(O)c1nccnc1C(=O)Nc1ccc(Cl)cn1`, for which the AC50 under setting [2] is 0.00461 µM [rising, full curve, poor fit].

With `Cc1cc(NC(=O)NCC(F)(F)F)no1`, the cell number change is -9.07%. Under setting [1], the AC50 was 6.51 µM [falling, single point]. Consider `Cc1ccc(CSCC(=O)N(C)CC(=O)Nc2cccc(F)c2)cc1`, for which the cell number change stood at 90.4%. With `O=C(O)c1ccc(N2C(=O)C3C4c5ccccc5C(Br)(c5ccccc54)C3C2=O)cc1` (centres undefined), the cell number change is -9.65%. Further, the AC50 under setting [2] was 0.164 µM [falling, full curve, poor fit]. For `Cc1cc(C)nc(/N=C2\NC(=O)CC(C(=O)O)N2c2ccc(C)c(C)c2)n1` (centres undefined), the cell number change is -54.2%. Further, the AC50 under setting [1] is 23.1 µM [falling, single point]. Turning to `COc1ccc(OC)c(N(CC(=O)NCCc2ccc(OC)c(OC)c2)S(=O)(=O)c2ccccc2)c1`, the cell number change was found to be 2.56%. For the compound `COc1cc(CN2CCC(C(=O)NC3CCCC3)CC2)cc(OC)c1O`, the cell number change is -9.08%. Under setting [2], the AC50 was 7.31 µM [falling, partial curve, poor fit].

Take `C[N+](C)(C)CCOP(=O)([O-])OC[C@H](O)CO`: the cell number change is 1.8%. Besides, the concentration at half-maximal activity (AC50) under setting [2] was 1.3 µM [falling, full curve]. On to `COCC(C)n1c(SCC(=O)N(C)C2CCS(=O)(=O)C2)nc2ccccc2c1=O` (centres undefined), for which the concentration at half-maximal activity (AC50) is, setting by setting: under setting [1], 0.058 µM [rising, partial curve, poor fit]; under setting [2], 0.058 µM [rising, partial curve, poor fit]. Consider `Cc1ccc(C(O)c2nc3ccccc3n2C(C)C)cc1` (centres undefined), for which the cell number change was -14.3%. Besides, under setting [2], the AC50 is 9.2 µM [rising, partial curve].

Take `CC(=O)Nc1cccc(C(=O)OCC(=O)NC2CCCCCCC2)c1`: the cell number change is -17.8%. Moreover, under setting [2], the AC50 was 20.6 µM [rising, single point]. For the compound `COc1ccc(CNC(=O)c2ccc(CS(=O)c3ccccc3)o2)cc1` (centres undefined), the cell number change is -17.1%. In addition, the AC50 under setting [2] was 29.1 µM [rising, partial curve]. In the case of `COc1ccc(CNc2ncnc3sccc23)cc1OC`, the cell number change was -13.9%. With `CC1(C)CC(=O)C2=C(C1)N(Cc1ccccc1)C(=O)C2(NC(=O)C(C)(C)C)C(F)(F)F` (centres undefined), the cell number change is -12.1%. In addition, under setting [2], the half-maximal activity concentration (AC50) was 32.6 µM [falling, single point]. For `Cc1ccccc1OCC(=O)NNC(=O)c1ccoc1C`, the cell number change turned out to be 2.99%. In the case of `COc1ccc2[nH]c(C)c(CCNC(=S)Nc3cc(C)cc(C)c3)c2c1`, the cell number change amounted to 18.1%. Besides, the concentration at half-maximal activity (AC50) under setting [1] is 0.651 µM [rising, full curve, poor fit]. In addition, the half-maximal activity concentration (AC50) under setting [2] is 0.206 µM [rising, full curve, poor fit]. Regarding `CN=C(N)NC(=O)Nc1c(C)cccc1C`, the cell number change is -3.69%. The AC50 under setting [2] is 0.164 µM [falling, full curve, poor fit]. With `Cc1ccc(Nc2nc(/N=C/NO)n[nH]2)cc1C`, the cell number change was -35.3%. Besides, the concentration at half-maximal activity (AC50) under setting [1] is 29.1 µM [falling, partial curve, poor fit].

`CCCOc1ccc(Cl)cc1/C=C1/C(=O)ON=C1C`: the cell number change came out at 17%. In addition, the AC50 under setting [2] is 29.1 µM [rising, single point]. In the case of `CCOC(=O)c1oc2ccc(Cl)cc2c1NC(C)=O`, the cell number change is -8.31%. The AC50 under setting [2] was 2.06 µM [rising, single point]. On to `Nc1ccc(N2CCN(c3ccc(Cl)c(Cl)c3)CC2)cc1`, for which the cell number change was -9.36%. The AC50 under setting [2] is 2.91 µM [rising, single point]. In the case of `CCOC(=O)c1ccc(NC(=S)NCCc2ccccc2)cc1`, the cell number change is -24.1%. Moreover, the AC50 under setting [2] was 16.4 µM [falling, single point]. As for `Cc1cccc(C)c1OCc1cc(C(=O)NC2CCC2)no1`, the cell number change was determined as 28.1%. Also, the AC50 under setting [2] is 0.13 µM [falling, full curve, poor fit].

For `COc1cccc(NCc2nnc(SCC(=O)NC3CCS(=O)(=O)C3)n2C2CCCCC2)c1` (centres undefined), under setting [1], the concentration at half-maximal activity (AC50) is 6.51 µM [rising, single point]. With `COc1ccc(C(=O)Nc2cc([N+](=O)[O-])ccc2N2CCN(C)CC2)cc1`, the cell number change turned out to be 5.33%. Further, the AC50 under setting [2] is 0.00731 µM [falling, full curve, poor fit]. Regarding `Cc1ccccc1S(=O)(=O)c1c(C)cc(C)n(C)c1=O`, the cell number change was -49.2%. The AC50 under setting [1] was 6.51 µM [falling, full curve]. For the same compound, the AC50 under setting [2] was 4.11 µM [falling, full curve, poor fit]. For `CCc1cccc(NC(=O)Cc2ccc(OC)c(OC)c2)c1`, the cell number change is -6.04%.

For `C1CN(c2nc3nonc3nc2N2CCOCC2)CCO1`, the cell number change is -9.62%. For the same compound, the concentration at half-maximal activity (AC50) under setting [2] is 2.59 µM [falling, full curve, poor fit]. In the case of `CC(=O)c1cccc(NC(=O)N2CCCC2C(=O)Nc2ccccc2C)c1` (centres undefined), the cell number change was found to be 26.7%. Moreover, the half-maximal activity concentration (AC50) under setting [2] is 29.1 µM [rising, single point]. `O=C(c1ccccc1)N1CC(COc2ccccc2)OC(c2ccco2)O1` (centres undefined): the cell number change was -11.7%. Take `Cn1nc(C(=O)NNC(=O)C2CSC3(C)CCC(=O)N23)c2ccccc2c1=O` (centres undefined): the cell number change was -16.3%. Moreover, the AC50 under setting [2] is 3.66 µM [falling, partial curve, poor fit].
